In publication PMC10983073:
Results are given in words; binding and its absence hold for the method and conditions named. Some results given as binding are weak or reduced against the parent protein; the word gives no strength.

Protein sequences, listed by entry. Tags and fused reporters are not part of them. Residues count along the entry.
UniProt Q969D9, residues 29-159: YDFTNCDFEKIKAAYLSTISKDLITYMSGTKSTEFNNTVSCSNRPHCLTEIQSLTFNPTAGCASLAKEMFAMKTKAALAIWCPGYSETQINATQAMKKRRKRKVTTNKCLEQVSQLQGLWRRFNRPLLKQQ

Biological target: TSLP-hFc fusion protein (human) (UniProt Q969D9)
Experiment: ELISA; blocking assay: plates coated with 1.5 μg/ml TSLP-hFc in PBS 16 hr at 4 °C; 1 μg/ml TSLPR-mFc added without or with increasing concentrations of antibody, room temperature, 2 hr; both purified

B1: TSLPR-mFc protein (Fc fusion, UniProt Q9HC73 23-231)
chain: QGGAAEGVQIQIIYFNLETVQVTWNASKYSRTNLTFHYRFNGDEAYDQCTNYLLQEGHTSGCLLDAEQRDDILYFSIRNGTHPVFTASRWMVYYLKPSSPKHVRFSWHQDAVTVTCSDLSYGDLLYEVQYRSPFDTEWQSKQENTCNVTIEGLDAEKCYSFWVRVKAMEDVYGPDTYPSDWSEVTCWQRGEIRDACAETPTPPKPKLSK
binding: binds
